Literature values in patent publication US20030073069A1, “Drug rescue by redesign of ADMET/PK properties” (priority 2001, published 2003).

System: P450

COC(=O)C1=C(C)NC(C)=C(C(=O)OC)C1c1ccccc1[N+](=O)[O-] [nifedipine]
No. of currently known drug interactions that involve the compound, Inhibition: 1
